From patent US10172951B2, “Dendrimer based nanodevices for therapeutic and imaging purposes” (priority 2009, dated 2019)
Some of these results come from one statement about several compounds together.

Test system: Mouse microglial cell line (BV-2)
Assay: In vitro cytotoxicity, MTT assay (Example 19)
Details: all doses (NAC equivalent 0.5, 2, 8 mM)
Text: In vitro cytotoxicity of the conjugate, dendrimer and NAC, at conditions similar to that used in the efficacy assays, was investigated by MTT assay. Mouse microglial cell line (BV-2) was obtained from Children's Hospital of Michigan Cell Culture Facility. These cells were used because the eventual in vivo applications seek to target microglial cells that become activated as a result of neuroinflammation.
The lipopolysaccharide (LPS) was used to activate the cells for the ROS assay. For the cytotoxicity study, the LPS treatment was continuous for 24 hours. For both groups, the LPS concentration used was 100 ng/ml. Three concentrations of NAC were studied: 0.5 mM, 2 mM and 8 mM. For the conjugate assays, the concentrations used corresponded to equivalent NAC doses of the free drug treatment groups. Similarly, the dendrimer assays were run by using dendrimer concentrations that were equivalent to conjugate treatments. Control groups included cells receiving only LPS and no other treatment and cells with no LPS or other treatment. The proportion of viable cells in the treated group was compared to that of negative control. The cell viability is expressed as mean±SD of three samples per group, and assessed by t-test.

Substance: PAMAM-NH—CO-Ethyl-S—S-NAC [PAMAM-S—S-NAC]
- microglial cell viability: > 80%
